# Laboratory results: PubChem BioAssay AID493014 (National Center for Advancing Translational Sciences (NCATS), 2011)
# The other results are listed elsewhere or left out. The main result of the screen is listed elsewhere. These columns were measured beside it and carry no call. Compounds called inactive in the main read-out are mostly missing here. The note in brackets gives the kind of curve behind each potency; many fits are weak.
# Assay: qHTS Assay to Find Inhibitors of Chronic Active B-Cell Receptor Signaling
# Details: ABC-DLBCL IkBa-CBG/CBR reporter, luminescence ratio (green luciferase fused to IkBa over red control in TMD8 lymphoma cells), 4 h
# How it was run: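 Concentration-response series (up to 46 uM) were applied to TMD8 dual-reporter cells for 4 h at 37C with doxycycline. Green/red ratio, after filter-overlap correction, defined %Activity; red signal alone was normalised to basal cells and zero luminescence.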
# [1] = measured here: CBR red luminescence, cell number
# [2] = measured here: IkBa-CBG green luminescence
SMILES,AC50 [1],AC50 [2]
Cc1csc(SCC(=O)NCc2ccc3c(c2)OCO3)n1,"22.4 µM [rising, single point]",–
O=C1CSC(c2cn(-c3ccccc3)nc2-c2ccccc2)N1Cc1ccco1 (centres undefined),"7.31 µM [falling, partial curve, poor fit]",–
Cc1ccc(S(=O)(=O)N2CCN(C(C)C(=O)NCC(C)c3ccccc3)CC2)cc1 (centres undefined),"6.51 µM [falling, single point]",–
Nc1nc(CCl)nc(Nc2cccc3ccccc23)n1,"17.8 µM [falling, partial curve, poor fit]",–
CC(OC(=O)c1ccc(O)cc1)C(=O)Nc1cc(C(F)(F)F)ccc1Cl (centres undefined),"2 µM [falling, partial curve, poor fit]",–
CCCc1nnc2n1N=C(c1ccc(C)cc1)CS2,"20 µM [falling, single point]",–
Cc1ccc(N=CC=C2OC(C)(C)C(C)(C)O2)cc1,"6.51 µM [falling, partial curve, poor fit]",–
N#C/C(=N\Nc1ccc([N+](=O)[O-])cc1)C(=N)N1CCOCC1,"0.1 µM [rising, full curve, poor fit]",–
O=C(NNc1c2ccccc2nc2ccccc12)c1ccccc1O,"16.4 µM [falling, single point]",–
COc1ccc(CNC(=O)C(CCSC)NS(=O)(=O)c2ccccc2F)cc1 (centres undefined),"25.1 µM [rising, single point]",–
N#Cc1nc(-c2cccc3ccccc23)oc1NCCN1CCCCC1,"5.8 µM [rising, single point]",–
COc1cccc(NC(=O)CN(C)C(=O)c2ccc(S(=O)(=O)Nc3ccccc3F)cc2)c1,"6.51 µM [rising, single point]","6.51 µM [falling, single point]"
CC1(C)NC(=O)N(CNc2cc(Cl)ccc2Cl)C1=O,"0.366 µM [falling, partial curve, poor fit]",–
CCN=C1S/C(=C\c2cn(CC(=O)NCc3ccco3)c3ccccc23)C(=O)N1CC,"2.51 µM [falling, partial curve, poor fit]",–
Oc1ccc(-c2[nH]ncc2-c2nc3ccccc3s2)c(O)c1,"35.5 µM [falling, single point]",–
CNC(=S)N(Cc1ccc(OC)cc1)C1CC(=O)N(c2ccc(Cl)cc2)C1=O (centres undefined),"12.6 µM [falling, partial curve, poor fit]",–
Fc1cccc(CSc2nnc3ccc(-c4ccncc4)nn23)c1,"35.5 µM [falling, single point]",–
O=C(O)/C=C/c1ccc(S(=O)(=O)Nc2ccc3[nH]c(=O)[nH]c3c2)cc1,"35.5 µM [falling, single point]",–
O=C(/C=C\Nc1ccccn1)c1ccc(Cl)cc1,"2 µM [falling, full curve]",–
O=C(N/N=C/c1cccc(O)c1)c1ccc(COc2ccccc2Br)cc1,"29.1 µM [falling, single point]",–

SMILES,AC50 [1],AC50 [2]
COC(=O)CCCn1c(C)cc(C(=O)CCl)c1C,"14.1 µM [falling, single point]",–
CC(=O)c1cc(CC=C(C)C)c(O)c(CC=C(C)C)c1O,"20 µM [rising, single point]",–
c1ccc(-c2ccc(-c3ccccn3)s2)nc1,"17.8 µM [falling, single point]",–
COc1ccnc(CSC(N)=Nc2ccc(F)cc2)c1,"25.9 µM [falling, single point]",–
COc1ccc(C(=O)c2c(NC(C)=O)sc3c2CCN(C(=O)OC(C)(C)C)C3)cc1,"1.58 µM [rising, partial curve, poor fit]",–
O=c1[nH]c2ccc(Cl)cc2c(-c2ccccc2)c1SC(=S)N1CCOCC1,"14.6 µM [falling, single point]",–
O=C(COC(=O)Cn1cnc2ccccc21)NCCC1=CCCCC1,"29.1 µM [rising, single point]",–
Cc1nn(-c2ccccc2)c(N)c1N=Nc1cccnc1,"2.82 µM [rising, partial curve, poor fit]","12.6 µM [falling, partial curve, poor fit]"
COCCn1c(C)cc(C(=O)COC(=O)/C=C/c2ccc(OC)cc2OC)c1C,"4.11 µM [rising, partial curve, poor fit]",–
CCCOc1ccc(C(=O)NNC(=S)NC(=O)c2ccco2)cc1,"35.5 µM [rising, single point]","35.5 µM [falling, single point]"
COc1ccccc1NC(=O)Nc1nc(CC(=O)N2CCN(c3ccccc3OC)CC2)cs1,"29.1 µM [falling, single point]",–
Cc1ccc(OCCC(=O)OCC(=O)Nc2cc(C)cc(C)c2)cc1,"14.1 µM [falling, single point]",–
CCC(=O)Nc1c(-c2ccccc2)c(=O)c2ccccc2n1C,"4.47 µM [falling, partial curve]",–
Cc1cc(C)n(-c2nc3ccccc3c(=O)n2OCC(C)C)n1,"5.62 µM [rising, single point]",–
O=C(c1cc2n(n1)C(C(F)(F)F)CC(c1ccc(Cl)cc1)N2)N1CCCC1 (centres undefined),"6.51 µM [falling, single point]","3.66 µM [rising, partial curve, poor fit]"
CCOC(=O)Oc1c(OC)cc(C(=O)O[C@@H]2C[C@@H]3CN4CCc5c([nH]c6cc(OC)ccc56)[C@H]4C[C@@H]3[C@H](C(=O)OC)[C@H]2OC)cc1OC,"13 µM [falling, partial curve, poor fit]",–
Cc1ccc(CSc2nc3ccccc3c(=O)[nH]2)cc1,"3.55 µM [rising, single point]",–
Cn1c(SCC(=O)N/N=C/C=C/c2ccccc2[N+](=O)[O-])nc2ccccc21,"10.3 µM [rising, partial curve]",–
Nc1nc(-c2ccc(Cl)cc2)c(S(=O)(=O)c2ccccc2)s1,"25.1 µM [falling, single point]",–
COC(=O)c1ccccc1NC(=O)Nc1cc(C)ccn1,"0.501 µM [rising, full curve, poor fit]",–
